Laboratory results taken from doi:10.1101/2023.07.23.550247.
Like-named read-outs stand apart in the source and are kept apart here. These are yes or no findings as the source states them, for the method shown. Binding seen in cells or lysates may run through a third protein. Binding calls can cover weak binding; strength is not graded here. One block for each binder: values may come before it.

How the values were obtained:
[1] = target: FLAG-tagged Keratin 18 S30A (human); test: co-IP
[2] = target: FLAG-tagged Keratin 18 S30A (human); test: co-IP; remark: listed apart in the source

- binding [1]: binds
- binding [2]: binds
B1: isocitrate dehydrogenase IDH2 (enzyme, UniProt P48735 40-452)
chain: ADKRIKVAKPVVEMDGDEMTRIIWQFIKEKLILPHVDIQLKYFDLGLPNRDQTDDQVTIDSALATQKYSVAVKCATITPDEARVEEFKLKKMWKSPNGTIRNILGGTVFREPIICKNIPRLVPGWTKPITIGRHAHGDQYKATDFVADRAGTFKMVFTPKDGSGVKEWEVYNFPAGGVGMGMYNTDESISGFAHSCFQYAIQKKWPLYMSTKNTILKAYDGRFKDIFQEIFDKHYKTDFDKNKIWYEHRLIDDMVAQVLKSSGGFVWACKNYDGDVQSDILAQGFGSLGLMTSVLVCPDGKTIEAEAAHGTVTRHYREHQKGRPTSTNPIASIFAWTRGLEHRGKLDGNQDLIRFAQMLEKVCVETVESGAMTKDLAGCIHGLSNVKLNEHFLNTTDFLDTIKSNLDRALGRQ

- binding [1]: binds
- binding [2]: binds
B2: isocitrate dehydrogenase IDH3A (enzyme, UniProt P50213 28-366)
chain: TGGVQTVTLIPGDGIGPEISAAVMKIFDAAKAPIQWEERNVTAIQGPGGKWMIPSEAKESMDKNKMGLKGPLKTPIAAGHPSMNLLLRKTFDLYANVRPCVSIEGYKTPYTDVNIVTIRENTEGEYSGIEHVIVDGVVQSIKLITEGASKRIAEFAFEYARNNHRSNVTAVHKANIMRMSDGLFLQKCREVAESCKDIKFNEMYLDTVCLNMVQDPSQFDVLVMPNLYGDILSDLCAGLIGGLGVTPSGNIGANGVAIFESVHGTAPDIAGKDMANPTALLLSAVMMLRHMGLFDHAARIEAACFATIKDGKSLTKDLGGNAKCSDFTEEICRRVKDLD

- binding [1]: binds
- binding [2]: binds
B3: isocitrate dehydrogenase IDH3G (enzyme, UniProt P51553 40-393)
chain: FSEQTIPPSAKYGGRHTVTMIPGDGIGPELMLHVKSVFRHACVPVDFEEVHVSSNADEEDIRNAIMAIRRNRVALKGNIETNHNLPPSHKSRNNILRTSLDLYANVIHCKSLPGVVTRHKDIDILIVRENTEGEYSSLEHESVAGVVESLKIITKAKSLRIAEYAFKLAQESGRKKVTAVHKANIMKLGDGLFLQCCREVAARYPQITFENMIVDNTTMQLVSRPQQFDVMVMPNLYGNIVNNVCAGLVGGPGLVAGANYGHVYAVFETATRNTGKSIANKNIANPTATLLASCMMLDHLKLHSYATSIRKAVLASMDNENMHTPDIGGQGTTSEAIQDVIRHIRVINGRAVEA
